Assay results reported in paper PMC3636079, “Determinants at the N- and C-termini of Gα12 required for activation of Rho-mediated signaling” (Journal of Molecular Signaling, 2013).
Results are given in words; binding and its absence hold for the method and conditions named. In cells and extracts the contact can be indirect. Some binding calls cover weakened binding; strength is not graded here. Where a sequence is shown, tags or fusion partners need not be part of it. Blank lines part the entries; values can stand above or below the binder they belong to.

Chains of the proteins cited; added tags and fusions are not shown. Residues count along the entry.
UniProt P30153: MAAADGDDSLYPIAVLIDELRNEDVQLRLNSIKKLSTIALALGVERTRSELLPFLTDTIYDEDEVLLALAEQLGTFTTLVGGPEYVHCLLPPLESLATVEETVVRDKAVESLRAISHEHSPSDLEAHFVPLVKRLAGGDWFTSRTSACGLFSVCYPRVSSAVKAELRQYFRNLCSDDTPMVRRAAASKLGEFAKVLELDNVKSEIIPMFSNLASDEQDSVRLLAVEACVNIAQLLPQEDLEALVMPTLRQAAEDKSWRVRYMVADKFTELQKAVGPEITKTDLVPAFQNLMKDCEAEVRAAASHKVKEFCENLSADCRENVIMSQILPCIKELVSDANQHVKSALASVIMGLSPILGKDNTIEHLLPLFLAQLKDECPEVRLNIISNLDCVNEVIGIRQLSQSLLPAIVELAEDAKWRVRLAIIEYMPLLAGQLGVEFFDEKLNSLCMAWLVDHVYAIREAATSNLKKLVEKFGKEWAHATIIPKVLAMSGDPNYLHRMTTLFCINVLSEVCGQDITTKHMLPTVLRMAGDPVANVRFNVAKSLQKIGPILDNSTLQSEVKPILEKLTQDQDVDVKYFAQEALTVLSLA
UniProt P12830, residues 785-882: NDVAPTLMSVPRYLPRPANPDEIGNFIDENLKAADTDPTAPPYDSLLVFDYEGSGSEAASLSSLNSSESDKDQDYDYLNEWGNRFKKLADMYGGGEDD

Assays:
Assay in all cases: pull-down; GST fusion (or GST alone) immobilised on glutathione-sepharose; HEK293 detergent-soluble extract diluted to 0.05% polyoxyethylene-10-lauryl ether in 50 mM HEPES pH 7.5, 1 mM EDTA, 3 mM dithiothreitol, 10 mM MgSO4; about 2 h at 4°C; three washes; immunoblot with anti-Gα12 or anti-myc; band intensities given as pulldown:load ratio; only the target purified
[1] = target: T1, GST fusion of amino acids 320-606 of LARG (GST-LARG-RH) (UniProt Q9NZN5)
T1 sequence: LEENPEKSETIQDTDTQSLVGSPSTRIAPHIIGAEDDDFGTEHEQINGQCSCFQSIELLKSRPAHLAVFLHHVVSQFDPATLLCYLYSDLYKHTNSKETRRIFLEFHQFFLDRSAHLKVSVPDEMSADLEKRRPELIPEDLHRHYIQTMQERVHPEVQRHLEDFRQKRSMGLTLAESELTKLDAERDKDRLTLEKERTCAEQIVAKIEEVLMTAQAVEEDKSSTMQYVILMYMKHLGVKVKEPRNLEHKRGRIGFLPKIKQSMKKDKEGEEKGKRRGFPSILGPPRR

[2] = target: GST fusion of the C-terminal 107 amino acids of heat shock protein-90 alpha (UniProt P07900)
[3] = target: T2, GST fusion of amino acids 1-252 of p115RhoGEF (GST-p115-RH) (UniProt Q92888)
T2 sequence: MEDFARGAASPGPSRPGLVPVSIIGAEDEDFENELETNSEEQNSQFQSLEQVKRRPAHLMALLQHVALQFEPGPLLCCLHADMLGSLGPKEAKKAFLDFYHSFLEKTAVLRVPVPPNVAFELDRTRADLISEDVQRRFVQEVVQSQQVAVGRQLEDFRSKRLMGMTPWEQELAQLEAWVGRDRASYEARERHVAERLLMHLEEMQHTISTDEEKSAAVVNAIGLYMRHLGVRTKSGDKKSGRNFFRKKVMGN

[4] = target: T3, GST fusion of protein phosphatase-5 (UniProt P53041)
T3 sequence: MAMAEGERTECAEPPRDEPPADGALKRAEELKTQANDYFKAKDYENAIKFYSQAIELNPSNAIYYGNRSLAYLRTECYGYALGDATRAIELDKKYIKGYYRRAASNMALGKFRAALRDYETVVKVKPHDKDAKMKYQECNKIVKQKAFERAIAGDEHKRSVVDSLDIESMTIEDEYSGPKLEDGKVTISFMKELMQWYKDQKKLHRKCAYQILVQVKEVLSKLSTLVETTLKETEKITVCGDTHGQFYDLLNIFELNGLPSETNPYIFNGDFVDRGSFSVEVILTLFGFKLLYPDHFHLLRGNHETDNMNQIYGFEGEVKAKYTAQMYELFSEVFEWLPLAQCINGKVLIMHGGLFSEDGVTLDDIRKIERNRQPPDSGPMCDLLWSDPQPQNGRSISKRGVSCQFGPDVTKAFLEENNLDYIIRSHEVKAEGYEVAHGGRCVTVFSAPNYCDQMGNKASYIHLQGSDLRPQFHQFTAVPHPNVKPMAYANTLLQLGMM

[5] = target: GST fusion of the scaffolding Aα subunit of protein phosphatase-2A (UniProt P30153)
[6] = target: GST fusion of the C-terminal 98 amino acids of E-cadherin (UniProt P12830)

binding [1]: binds
binding [2]: binds
binding [3]: binds
binding [4]: binds
binding [5]: binds
binding [6]: binds
B1: myc-tagged Gα12 Gln^229Leu (myc-Gα12^QL) (protein, UniProt P27600 1-379)
chain: MSGVVRTLSRCLLPAEAGARERRAGAARDAEREARRRSRDIDALLARERRAVRRLVKILLLGAGESGKSTFLKQMRIIHGREFDQKALLEFRDTIFDNILKGSRVLVDARDKLGIPWQHSENEKHGMFLMAFENKAGLPVEPATFQLYVPALSALWRDSGIREAFSRRSEFQLGESVKYFLDNLDRIGQLNYFPSKQDILLARKATKGIVEHDFVIKKIPFKMVDVGGLRSQRQKWFQCFDGITSILFMVSSSEYDQVLMEDRRTNRLVESMNIFETIVNNKLFFNVSIILFLNKMDLLVEKVKSVSIKKHFPDFKGDPHRLEDVQRYLVQCFDRKRRNRSKPLFHHFTTAIDTENIRFVFHAVKDTILQENLKDIMLQ

binding [3]: binds
B2: Gα12 Gln^229Leu, untagged (Gα12^QL) (protein, UniProt P27600 1-379)
chain: B1 chain
